About 7,700 (2.3%) of roughly 330,000 compounds were called active. The inconclusive results got no clear call from the source; some entries with a clear call stand among them for comparison. Calls follow the shape of the dose curve; as a rule, active = well fitted inhibition curve with a large enough effect; inconclusive = small, poorly fitted or top-dose-only effect, or effect the other way; inactive = flat fitted curve, though single readings scatter. A potency beside an inconclusive call is a rough fit, not a confirmed value.
Experiment: qHTS screen for small molecules that inhibit ELG1-dependent DNA repair in human embryonic kidney (HEK293T) cells expressing luciferase-tagged ELG1; also: nearly all actives have a fitted effect of over 55% in size
Details: HEK293T ELG1-luciferase reporter, luminescence, 16 h, DNA damage induced by 5-fluorouridine; activity change, negative = inhibition: at 46.1 µM (top of the series)
Summary of the method: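 5-Fluorouridine DNA damage + compound/DMSO, 2,000 cells/well, 16 h, 37 °C/5% CO2. ONE-Glo, 30 min RT, luminescence. Readout = decrease in reporter signal.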
% is scaled to controls: 0 for no effect and ±100 for the full control effect; potency is read from the fitted curve at half-maximal effect.

Structure (SMILES)	Potency	activity change, negative = inhibition
N#CC(C(=O)NCCc1ccccc1)c1nc2ccccc2nc1N1CCCCC1 (configuration not stated)	inactive	
O=C(OCC(=O)N1CCc2ccccc21)c1ccc([N+](=O)[O-])cc1	inconclusive: 18.3 µM [activator, single point]	
COc1ccc(N2CCC(CNC(=S)Nc3ccc(C)cc3C)C2)cc1 (configuration not stated)	inconclusive: 29.1 µM [inhibitor, single point]	
COc1cccc(OC)c1OCCCOc1ccc(C)cc1Br	inactive	
CCOCc1nnc(NC(=O)c2cccc(OC)c2)s1	inconclusive: 18.3 µM [activator, partial curve]	
COc1cccc(/C=C2\SC(=S)N(CCCC(=O)Nc3ccc(C(=O)O)cc3)C2=O)c1	inactive	
Cn1cnnc1SCC(=O)Nc1ccc2ccccc2c1	inconclusive: 13 µM [activator, partial curve]	
COc1ccc(NC(=O)CSc2nnc(NC(=O)C3CC3)s2)cc1OC	inactive	
Cc1ccc(C(=O)Nn2cnc3ccccc3c2=O)cc1C	inconclusive: 18.3 µM [activator, partial curve]	
CCc1ccc(OCCCC(=O)Nc2ccc(S(=O)(=O)Nc3cc(C)nc(C)n3)cc2)cc1	inactive	
COc1ccc(CNC(=O)Cn2nc(-c3ccc4c(c3)OCCO4)ccc2=O)cc1	inconclusive: 6.51 µM [inhibitor, partial curve]	
COc1cccc(C(=O)O[C@H]2[C@H](Cc3ccccc3)NS(=O)(=O)[C@H]3C[C@@H]4C=C[C@]23O4)c1	inconclusive: 23.1 µM [activator, partial curve]	
COc1ccc(C)cc1NC(=S)NNC(=O)c1c(Br)cnn1C	inconclusive: 20.6 µM [inhibitor, single point]	
COc1ccc(Cl)c(Cn2c(NCc3ccco3)nc3c2c(=O)n(C)c(=O)n3C)c1	inconclusive: 16.4 µM [inhibitor, partial curve]	
O=C(Cc1n[nH]c(=O)c2ccccc12)Nc1cc(Cl)ccc1-n1cncn1	inactive	
O=[N+]([O-])c1cc(-n2cnnn2)ccc1N1CCC(Cc2ccccc2)CC1	inconclusive: 23.1 µM [inhibitor, single point]	
CN(C)S(=O)(=O)n1cc(/C=C(\NC(=O)c2ccccc2)C(=O)NCCCn2ccnc2)c2ccccc21	inactive	
CCCN1Cc2cccc(C(=O)Nc3ccc(-c4nc5ccccc5[nH]4)cc3)c2C1=O	inconclusive: 18.4 µM [activator, single point]	
Cc1cccc(OCCNC(=O)CCNS(=O)(=O)c2ccc3ccccc3c2)c1	inconclusive: 23.1 µM [inhibitor, single point]	
O=C(COc1ccc(Br)cc1)N1CCc2ccccc21	inconclusive: 9.2 µM [activator, partial curve]	
O=C(C1CC1)N1CCc2cc(Br)cc(S(=O)(=O)NCC3COc4ccccc4O3)c21 (configuration not stated)	inconclusive: 20.6 µM [inhibitor, single point]	
CCN(CC)c1nc(N)n(CCSC(=S)N(C)C)c(=O)n1	inconclusive: 0.13 µM [inhibitor, single point]	
Cc1cc(OCCOCCNCc2ccccc2)ccc1C(C)C	inactive	
COc1ccccc1CNC(=O)COC(=O)CCN=C1NS(=O)(=O)c2ccccc21	inactive	

Structure (SMILES)	Potency	activity change, negative = inhibition
CC(=O)Oc1oc(-c2ccccc2)nc1C=Nc1ccc(N(C)C)cc1	inactive	
CN1CCN(C(=O)c2cnn3c(C(F)(F)F)cc(-c4ccc5c(c4)OCO5)nc23)CC1	active: 5.8 µM	
Cc1cc(OCC(=O)Nc2ccc3c(c2)OCCO3)cc(C)c1Cl	inactive	
O=C(NC1CCS(=O)(=O)C1)c1cccc(Cl)c1 (configuration not stated)	inconclusive: 2.06 µM [activator, partial curve, poor fit]	
O=C(NCc1ccccc1)c1c(Cl)nc(Cl)c(Cl)c1Cl	inconclusive: 29.1 µM [inhibitor, single point]	
Oc1cc(NCCc2cccnc2)cc2cccnc12	active: 23.1 µM	
O=C(Cc1n[nH]c(=O)[nH]c1=O)N/N=C/c1c(O)ccc2ccccc12		inconclusive: 112% [activator]
CCOc1ccccc1C(=O)Nc1ccsc1C(=O)OC	inconclusive: 1.84 µM [inhibitor, full curve]	
O=C(CSc1ncc(C(F)(F)F)cc1Cl)N1CCNC1=O	inconclusive: 5.8 µM [activator, single point]	
Cc1ccc(OCCn2cnc3ccccc3c2=O)c([N+](=O)[O-])c1	inconclusive: 4.61 µM [activator, full curve]	
COC(=O)CCC(=O)c1ccn(S(=O)(=O)c2ccccc2)c1	inactive	
C=CCN1C(=O)c2ccc(C(=O)Nc3ccccn3)cc2C1=O	inconclusive: 1.83 µM [activator, partial curve, poor fit]	
Cc1ccc(O)c(C(=O)c2cc(C#N)c(=O)n(Cc3ccccc3)c2)c1	inactive	
Clc1ccc2oc(SCc3cccnc3)nc2c1	inconclusive: 11.6 µM [activator, partial curve, poor fit]	
COc1cc(-n2c(C)nc3cc(C(=O)NCC4CCCO4)ccc32)cc(OC)c1OC (configuration not stated)	inactive	
O=C(N/N=C/C(Cl)=C/c1ccccc1)c1cnccn1	inconclusive: 16.4 µM [activator, partial curve]	
O=C(/C=C/Nc1ccc(Oc2ccccc2Cl)cc1)c1ccco1	inconclusive: 3.66 µM [activator, partial curve]	
Cc1cccc(NC(=O)c2ccc3c(c2)OCCO3)n1	inconclusive: 4.61 µM [activator, partial curve]	
COc1ccc(C(NCC(=O)NC(C)c2ccc(Cl)cc2)c2ccccc2)cc1 (configuration not stated)	inconclusive: 0.651 µM [inhibitor, partial curve]	
CCN(C(=O)CCc1ccccc1)C1CCCCC1	inactive	
Cc1nc(Cl)cc(N/N=C/c2ccc(O)cc2O)n1	inconclusive: 29.1 µM [activator, single point]	
CCNC(=O)NC(=O)C(C)OC(=O)c1oc2ccccc2c1CSC1CCCCC1 (configuration not stated)	inactive	
COC(=O)c1ccccc1NC(=O)COC(=O)c1ccc(C)c(NC(=O)c2ccco2)c1	inconclusive: 23.1 µM [inhibitor, single point]	
COc1ccc(N2C(=O)C3CCCN3C2c2ccccc2)cc1Cl (configuration not stated)	inconclusive: 18.4 µM [activator, partial curve, poor fit]	

Structural class, the entries above containing two or more sulfur atoms
Structure (SMILES)	Potency	activity change, negative = inhibition
COc1cccc(/C=C2\SC(=S)N(CCCC(=O)Nc3ccc(C(=O)O)cc3)C2=O)c1	inactive	
COc1ccc(NC(=O)CSc2nnc(NC(=O)C3CC3)s2)cc1OC	inactive	
CCN(CC)c1nc(N)n(CCSC(=S)N(C)C)c(=O)n1	inconclusive: 0.13 µM [inhibitor, single point]	

(further entries)

Structure (SMILES)	Potency	activity change, negative = inhibition
COc1ccc(NC(=O)Cn2c(=O)n(CC3CCCO3)c(=O)c3cc(OC)c(OC)cc32)c(OC)c1 (configuration not stated)	inconclusive: 0.259 µM [inhibitor, single point]	
O=[N+]([O-])c1ccc(N2CCN(Cc3cccc([N+](=O)[O-])c3)CC2)cc1	inactive	
Nc1cc(S(=O)(=O)N2CCOCC2)ccc1Oc1ccc(F)cc1	inconclusive: 29.1 µM [inhibitor, single point]	
O=C(CSc1ncnc2nc[nH]c12)N1CCOCC1	inactive	
CCOc1ccc(NS(=O)(=O)c2ccc(C(=O)NCC(c3ccc(OC)cc3)N3CCOCC3)cc2)cc1 (configuration not stated)	inactive	
CCn1cnc2cc(NCc3ccc(OC)cc3)ccc21	inconclusive: 13 µM [activator, partial curve]	
CCOc1ccc(-c2nc(S(=O)(=O)c3ccccc3)c(N3CCOCC3)o2)cc1	inactive	
Cc1ccc(NC(=O)c2sc3ncnc(N4CCN(c5ccccn5)CC4)c3c2C)c(C)c1	inconclusive: 20.6 µM [inhibitor, single point]	
CCOc1ccc(N(C)S(=O)(=O)c2cc(-c3cc(C)no3)ccc2CC)cc1	inconclusive: 29.1 µM [inhibitor, single point]	
COc1ccc2c(c1)C(=O)CC(c1ccc3c(c1)OCCO3)O2 (configuration not stated)	inconclusive: 3.26 µM [activator, partial curve, poor fit]	
C[C@@H](NC(=O)c1nc[nH]c1C(=O)N[C@@H](Cc1ccccc1)C(=O)OC(C)(C)C)c1ccccc1	inactive	
CCCCN(CCCC)C(=O)c1sc2nc(N3CCOCC3)c3c(c2c1N)CCCC3	inconclusive: 16.4 µM [inhibitor, single point]	
Cc1cc(C)cc(NC(=S)NCCN(C2CCCCC2)C2CCCC2)c1	inactive	
CC(=O)Nc1ccc(S(=O)(=O)N2CCN=C2SCc2ccc(C)cc2)cc1	inconclusive: 29.1 µM [activator, single point]	
N#Cc1c(NC(=O)COC(=O)c2ccc(S(=O)(=O)N3CCCC3)cc2)sc2c1CCCCC2	inconclusive: 16.4 µM [activator, single point]	
C(=C\c1ccccc1)/CSc1nnc(-c2ccccc2)n1Cc1ccco1	inconclusive: 6.51 µM [inhibitor, single point]	
Cc1ccc(N)cc1O	inconclusive: 0.146 µM [inhibitor, single point]	
Cc1csc(NC(=O)c2ccc(OCC3CCCO3)cc2)n1 (configuration not stated)	inconclusive: 2.31 µM [activator, partial curve]	
Cc1oc2ccc(O)c(CN(C)C)c2c1C(=O)c1ccccc1	inactive	
COC(=O)c1ccc(COc2ccccc2/C=C(\C#N)C(=O)Nc2ccccc2C)cc1	inconclusive: 16.4 µM [activator, single point]	
COc1ccc(/C=C(/C#N)C(=O)NC2CCCCC2)cc1Br	inactive	
COc1ccc(-c2cn3nc(C)c(C)nc3n2)cc1OC	inconclusive: 9.2 µM [activator, partial curve]	
COc1ccc(-c2csc(Nc3cccc(C)n3)n2)cc1C	inconclusive: 3.66 µM [activator, full curve]	
COc1cc(S(=O)(=O)N(C)Cc2ccc3c(c2)OCCO3)ccc1NC(C)=O	inconclusive: 11.6 µM [activator, partial curve, poor fit]	

Complete entries, quoted from the list:
COc1ccc2c(c1)C(=O)CC(c1ccc3c(c1)OCCO3)O2 (configuration not stated) is entered as Potency: inconclusive: 3.26 µM [activator, partial curve, poor fit]
COc1ccc(-c2csc(Nc3cccc(C)n3)n2)cc1C is entered as Potency: inconclusive: 3.66 µM [activator, full curve]
